PubChem BioAssay AID652272 – Drosophila RNAi Screening Center – 2013

- Purpose: 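Genome-wide knock-down search for components of Hedgehog signalling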 (primary screen)
- Cells: Drosophila clone 8 (Cl8) cells
- Reagent: long dsRNA against Drosophila genes
- Read-out: 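Firefly light from a Hedgehog-responsive ptc promoter reporter and Renilla reference light, both read on a plate reader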
- Direction: firefly Hh reporter signal: higher = more ptc reporter light; Renilla reference signal: higher = more Renilla control light
- Active means: 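Hit when the z-score averaged over two replicates is under -2 or over +3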
- Meaning of the calls: active = hit: reporter lowered or raised; inactive = not a hit
The screen tested about 21,000 reagents; this is a random part of those with a known target gene and a result. In the full data, 503 (2.4%) are marked active. 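Raw plate light values, not normalised; calls rest on replicate z-scores that were not deposited; hits include reporter decreases as well as increases.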 Reagents against one gene are numbered here. Names joined by + are all predicted targets of the reagent. Not stated in the record: the amount of reagent, the time to read-out.

| predicted target | reagent | firefly Hh reporter signal, replicate 1 | firefly Hh reporter signal, replicate 2 | Renilla reference signal, replicate 1 | Renilla reference signal, replicate 2 | call |
| --- | --- | --- | --- | --- | --- | --- |
| CG5280 (GeneID 39033) | 1 | 63509 | 99876 | 5868 | 6413 | inactive |
| CG2147 (GeneID 31759) | 1 | 93837 | 64352 | 2210 | 1634 | inactive |
| Slip1 (GeneID 43809) | 1 | 1.35e5 | 50352 | 2960 | 1864 | inactive |
| CG34283 (GeneID 5740817) | 1 | 5.68e5 | 91498 | 3379 | 3379 | inactive |
| CG7888 (GeneID 39232) | 1 | 1.00e5 | 54244 | 5047 | 1937 | inactive |
| Atg6 (GeneID 42850) | 1 | 90396 | 83947 | 3795 | 3440 | inactive |
| CG14841 (GeneID 41735) | 1 | 1.05e5 | 97579 | 4317 | 2873 | inactive |
| FucTB (GeneID 34260) | 1 | 97799 | 48146 | 2695 | 5131 | inactive |
| CG4678 (GeneID 32652) | 1 | 82555 | 2.12e5 | 2816 | 8274 | inactive |
| CG4678 (GeneID 32652) | 2 | 56225 | 3.64e5 | 2179 | 13858 | inactive |
| Mob3 (GeneID 34372) | 1 | 86710 | 73825 | 2363 | 6485 | inactive |
| CG9044 (GeneID 33825) | 1 | 1.27e5 | 51328 | 4418 | 2480 | inactive |
| CG9316 (GeneID 35333) | 1 | 75545 | 61003 | 2187 | 6085 | inactive |
| CG9784 (GeneID 32629) | 1 | 79456 | 1.73e5 | 3036 | 7269 | inactive |
| CG4199 (GeneID 31174) | 1 | 1.03e5 | 61208 | 1933 | 1805 | inactive |
| CG31407 (GeneID 318716) | 1 | 1.56e5 | – | 3371 | – | inactive |
| mthl15 (GeneID 318914) | 1 | 4.37e5 | 1.49e5 | 24155 | 6397 | inactive |
| eIF2gamma + Su(var)3-9 | 1 | 30209 | 1.77e5 | 5319 | 4154 | inactive |
| eIF2gamma + Su(var)3-9 | 2 | 1.21e5 | 84784 | 4664 | 3348 | inactive |
| CG7506 (GeneID 38857) | 1 | 1.87e5 | 1.24e5 | 7623 | 4689 | inactive |
| CG11723 (GeneID 33388) | 1 | 1.30e5 | 84656 | 5168 | 2705 | inactive |
| CG17807 (GeneID 37585) | 1 | 70961 | 41222 | 2707 | 1700 | inactive |
| c-cup (GeneID 33360) | 1 | 2.00e5 | 1.13e5 | 3952 | 3077 | inactive |
